This list holds what a sample rich in targets with a hit left over. Single values of this set are uncertain. Only a part is listed here, and it is no random draw.

By UniProt entry, the sequences of proteins in these tests, tags left out. Where a name states a change or a piece, a line headed by the entry shows the natural chain unless it says otherwise.
UniProt O60232: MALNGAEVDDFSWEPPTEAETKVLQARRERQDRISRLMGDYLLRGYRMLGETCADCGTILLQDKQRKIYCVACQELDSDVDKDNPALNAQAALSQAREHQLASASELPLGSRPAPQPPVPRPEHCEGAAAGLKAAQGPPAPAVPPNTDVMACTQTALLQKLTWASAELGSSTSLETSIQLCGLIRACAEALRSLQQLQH
UniProt O75165, whole entry: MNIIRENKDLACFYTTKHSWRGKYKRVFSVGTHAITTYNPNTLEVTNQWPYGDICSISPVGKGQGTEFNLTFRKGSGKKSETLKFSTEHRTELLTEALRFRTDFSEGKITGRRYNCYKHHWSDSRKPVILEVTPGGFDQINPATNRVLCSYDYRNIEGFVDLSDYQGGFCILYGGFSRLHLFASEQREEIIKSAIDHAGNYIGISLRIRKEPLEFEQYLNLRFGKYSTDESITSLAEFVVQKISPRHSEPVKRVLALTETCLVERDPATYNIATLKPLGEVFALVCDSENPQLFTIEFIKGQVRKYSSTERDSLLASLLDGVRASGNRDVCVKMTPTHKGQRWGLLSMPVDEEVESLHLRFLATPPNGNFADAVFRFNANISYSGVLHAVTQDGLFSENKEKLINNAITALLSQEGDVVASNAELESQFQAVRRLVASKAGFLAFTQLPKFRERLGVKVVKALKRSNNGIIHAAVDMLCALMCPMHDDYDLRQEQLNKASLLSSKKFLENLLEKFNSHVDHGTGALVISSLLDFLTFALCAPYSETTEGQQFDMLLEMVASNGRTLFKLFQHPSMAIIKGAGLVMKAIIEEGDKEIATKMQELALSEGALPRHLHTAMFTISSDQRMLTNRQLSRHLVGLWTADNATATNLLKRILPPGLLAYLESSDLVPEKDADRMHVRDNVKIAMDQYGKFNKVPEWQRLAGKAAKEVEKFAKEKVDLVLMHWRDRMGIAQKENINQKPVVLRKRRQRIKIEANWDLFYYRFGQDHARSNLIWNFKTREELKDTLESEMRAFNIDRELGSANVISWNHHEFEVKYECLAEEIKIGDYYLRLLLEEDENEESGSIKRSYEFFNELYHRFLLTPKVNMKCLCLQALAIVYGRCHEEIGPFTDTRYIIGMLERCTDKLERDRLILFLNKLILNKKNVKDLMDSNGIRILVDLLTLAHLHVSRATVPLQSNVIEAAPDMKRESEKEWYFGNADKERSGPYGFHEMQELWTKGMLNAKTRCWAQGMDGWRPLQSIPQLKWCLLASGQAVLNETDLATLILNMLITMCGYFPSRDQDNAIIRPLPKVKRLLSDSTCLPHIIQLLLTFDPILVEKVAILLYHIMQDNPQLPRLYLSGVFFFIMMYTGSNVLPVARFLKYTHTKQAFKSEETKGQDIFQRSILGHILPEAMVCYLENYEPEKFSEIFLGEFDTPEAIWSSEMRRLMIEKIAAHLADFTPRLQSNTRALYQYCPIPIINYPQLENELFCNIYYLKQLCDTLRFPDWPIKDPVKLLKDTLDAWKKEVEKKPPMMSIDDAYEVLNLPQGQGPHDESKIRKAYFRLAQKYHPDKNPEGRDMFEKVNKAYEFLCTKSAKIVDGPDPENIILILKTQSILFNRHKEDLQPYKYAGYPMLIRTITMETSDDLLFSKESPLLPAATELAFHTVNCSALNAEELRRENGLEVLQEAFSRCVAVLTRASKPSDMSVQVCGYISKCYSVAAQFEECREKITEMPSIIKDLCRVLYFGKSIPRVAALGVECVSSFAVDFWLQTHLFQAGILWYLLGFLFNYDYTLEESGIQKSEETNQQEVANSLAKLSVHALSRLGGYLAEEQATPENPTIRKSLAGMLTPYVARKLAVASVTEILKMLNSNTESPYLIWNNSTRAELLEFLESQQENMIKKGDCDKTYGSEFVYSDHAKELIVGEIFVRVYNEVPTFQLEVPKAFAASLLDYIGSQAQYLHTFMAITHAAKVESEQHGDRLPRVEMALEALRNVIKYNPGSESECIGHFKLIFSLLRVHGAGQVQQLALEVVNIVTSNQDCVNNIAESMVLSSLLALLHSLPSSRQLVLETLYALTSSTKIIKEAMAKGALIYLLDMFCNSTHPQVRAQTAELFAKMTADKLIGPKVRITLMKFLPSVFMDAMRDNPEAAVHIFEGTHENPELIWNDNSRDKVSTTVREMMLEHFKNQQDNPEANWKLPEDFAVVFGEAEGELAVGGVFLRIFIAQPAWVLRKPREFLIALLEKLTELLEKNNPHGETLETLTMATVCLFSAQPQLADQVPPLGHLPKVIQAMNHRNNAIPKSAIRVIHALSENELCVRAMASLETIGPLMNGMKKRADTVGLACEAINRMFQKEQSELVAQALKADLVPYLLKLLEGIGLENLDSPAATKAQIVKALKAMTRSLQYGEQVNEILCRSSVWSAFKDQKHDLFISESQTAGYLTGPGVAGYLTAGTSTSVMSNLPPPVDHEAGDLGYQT
UniProt O43865, whole entry: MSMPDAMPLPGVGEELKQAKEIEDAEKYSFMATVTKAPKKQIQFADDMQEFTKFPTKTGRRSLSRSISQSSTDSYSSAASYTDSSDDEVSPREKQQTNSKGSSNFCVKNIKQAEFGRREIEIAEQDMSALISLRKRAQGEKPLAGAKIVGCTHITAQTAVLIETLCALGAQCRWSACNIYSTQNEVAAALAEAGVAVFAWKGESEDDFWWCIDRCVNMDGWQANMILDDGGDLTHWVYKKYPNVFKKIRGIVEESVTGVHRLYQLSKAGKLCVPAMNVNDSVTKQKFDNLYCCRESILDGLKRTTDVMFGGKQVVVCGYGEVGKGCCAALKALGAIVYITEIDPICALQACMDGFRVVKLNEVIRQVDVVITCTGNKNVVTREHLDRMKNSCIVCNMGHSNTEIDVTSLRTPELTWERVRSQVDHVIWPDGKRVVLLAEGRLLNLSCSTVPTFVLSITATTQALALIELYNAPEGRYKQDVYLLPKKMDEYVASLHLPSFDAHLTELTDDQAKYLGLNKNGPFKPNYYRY
UniProt O60343: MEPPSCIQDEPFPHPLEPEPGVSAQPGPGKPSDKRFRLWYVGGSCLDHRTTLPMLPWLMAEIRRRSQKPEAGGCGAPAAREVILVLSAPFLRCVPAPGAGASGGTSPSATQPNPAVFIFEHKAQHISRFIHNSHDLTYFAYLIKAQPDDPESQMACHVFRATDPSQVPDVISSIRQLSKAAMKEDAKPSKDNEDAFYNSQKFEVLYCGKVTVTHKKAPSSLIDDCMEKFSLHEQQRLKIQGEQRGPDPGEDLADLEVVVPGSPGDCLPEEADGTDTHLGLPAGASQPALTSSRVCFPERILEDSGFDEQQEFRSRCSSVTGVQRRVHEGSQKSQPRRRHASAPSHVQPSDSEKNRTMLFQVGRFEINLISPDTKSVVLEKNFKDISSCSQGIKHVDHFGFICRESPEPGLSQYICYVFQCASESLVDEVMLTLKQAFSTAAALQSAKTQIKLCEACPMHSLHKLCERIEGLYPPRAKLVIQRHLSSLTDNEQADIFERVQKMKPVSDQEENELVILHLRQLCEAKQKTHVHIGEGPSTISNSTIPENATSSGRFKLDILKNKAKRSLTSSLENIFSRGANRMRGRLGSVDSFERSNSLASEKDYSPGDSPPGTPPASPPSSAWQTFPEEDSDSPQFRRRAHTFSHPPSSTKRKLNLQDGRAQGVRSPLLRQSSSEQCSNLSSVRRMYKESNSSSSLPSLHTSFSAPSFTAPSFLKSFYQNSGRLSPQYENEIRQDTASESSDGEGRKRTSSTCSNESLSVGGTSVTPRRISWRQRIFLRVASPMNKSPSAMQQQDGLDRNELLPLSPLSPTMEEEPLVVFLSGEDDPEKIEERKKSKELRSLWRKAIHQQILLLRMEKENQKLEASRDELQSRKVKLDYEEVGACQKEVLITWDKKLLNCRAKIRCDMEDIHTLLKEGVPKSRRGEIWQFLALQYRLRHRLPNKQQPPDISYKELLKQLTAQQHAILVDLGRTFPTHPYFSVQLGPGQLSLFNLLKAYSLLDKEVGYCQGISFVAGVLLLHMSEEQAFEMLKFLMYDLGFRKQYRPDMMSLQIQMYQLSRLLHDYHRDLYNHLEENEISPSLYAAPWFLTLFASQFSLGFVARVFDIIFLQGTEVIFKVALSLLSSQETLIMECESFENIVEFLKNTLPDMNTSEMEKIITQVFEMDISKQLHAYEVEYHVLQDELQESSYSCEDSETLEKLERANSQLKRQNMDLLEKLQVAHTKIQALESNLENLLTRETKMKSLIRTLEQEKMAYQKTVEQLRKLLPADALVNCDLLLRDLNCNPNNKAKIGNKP
UniProt O60306: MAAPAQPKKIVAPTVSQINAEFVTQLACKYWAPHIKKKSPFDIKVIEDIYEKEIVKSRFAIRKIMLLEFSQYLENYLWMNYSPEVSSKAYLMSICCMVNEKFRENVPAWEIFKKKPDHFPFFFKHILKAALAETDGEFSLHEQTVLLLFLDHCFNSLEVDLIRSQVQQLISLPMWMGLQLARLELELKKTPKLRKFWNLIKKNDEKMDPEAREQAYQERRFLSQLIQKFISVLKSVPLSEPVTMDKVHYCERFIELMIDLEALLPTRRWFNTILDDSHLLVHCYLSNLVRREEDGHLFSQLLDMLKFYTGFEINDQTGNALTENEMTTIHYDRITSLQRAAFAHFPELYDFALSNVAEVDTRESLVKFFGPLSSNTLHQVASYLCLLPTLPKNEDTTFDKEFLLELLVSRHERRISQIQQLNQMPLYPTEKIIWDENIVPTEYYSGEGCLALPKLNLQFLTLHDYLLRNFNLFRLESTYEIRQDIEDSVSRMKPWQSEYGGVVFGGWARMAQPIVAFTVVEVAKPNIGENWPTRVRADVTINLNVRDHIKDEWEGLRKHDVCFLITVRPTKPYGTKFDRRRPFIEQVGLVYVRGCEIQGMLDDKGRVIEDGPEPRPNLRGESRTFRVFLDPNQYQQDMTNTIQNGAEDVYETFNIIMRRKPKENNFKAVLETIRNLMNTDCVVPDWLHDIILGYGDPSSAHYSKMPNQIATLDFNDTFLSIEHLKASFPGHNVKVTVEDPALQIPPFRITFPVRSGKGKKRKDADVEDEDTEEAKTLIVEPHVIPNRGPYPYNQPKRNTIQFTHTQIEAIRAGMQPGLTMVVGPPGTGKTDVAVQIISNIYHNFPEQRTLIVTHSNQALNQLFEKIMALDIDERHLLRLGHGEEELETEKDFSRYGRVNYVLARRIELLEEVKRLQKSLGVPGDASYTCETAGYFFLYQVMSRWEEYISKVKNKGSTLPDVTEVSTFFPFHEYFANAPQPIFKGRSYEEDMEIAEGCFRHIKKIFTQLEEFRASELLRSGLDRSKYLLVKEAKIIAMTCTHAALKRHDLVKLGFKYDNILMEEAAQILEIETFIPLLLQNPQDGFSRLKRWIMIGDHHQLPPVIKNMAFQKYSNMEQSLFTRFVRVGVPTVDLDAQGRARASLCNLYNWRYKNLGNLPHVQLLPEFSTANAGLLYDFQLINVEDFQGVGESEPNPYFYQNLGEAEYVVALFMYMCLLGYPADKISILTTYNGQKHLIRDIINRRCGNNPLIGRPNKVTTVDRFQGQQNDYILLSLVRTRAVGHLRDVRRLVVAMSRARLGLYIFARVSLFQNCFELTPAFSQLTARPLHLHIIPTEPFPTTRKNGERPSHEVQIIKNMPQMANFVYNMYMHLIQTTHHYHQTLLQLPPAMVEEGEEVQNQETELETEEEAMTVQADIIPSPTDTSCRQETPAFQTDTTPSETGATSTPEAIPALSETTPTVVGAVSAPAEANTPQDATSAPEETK
UniProt O75582, whole entry, looked up: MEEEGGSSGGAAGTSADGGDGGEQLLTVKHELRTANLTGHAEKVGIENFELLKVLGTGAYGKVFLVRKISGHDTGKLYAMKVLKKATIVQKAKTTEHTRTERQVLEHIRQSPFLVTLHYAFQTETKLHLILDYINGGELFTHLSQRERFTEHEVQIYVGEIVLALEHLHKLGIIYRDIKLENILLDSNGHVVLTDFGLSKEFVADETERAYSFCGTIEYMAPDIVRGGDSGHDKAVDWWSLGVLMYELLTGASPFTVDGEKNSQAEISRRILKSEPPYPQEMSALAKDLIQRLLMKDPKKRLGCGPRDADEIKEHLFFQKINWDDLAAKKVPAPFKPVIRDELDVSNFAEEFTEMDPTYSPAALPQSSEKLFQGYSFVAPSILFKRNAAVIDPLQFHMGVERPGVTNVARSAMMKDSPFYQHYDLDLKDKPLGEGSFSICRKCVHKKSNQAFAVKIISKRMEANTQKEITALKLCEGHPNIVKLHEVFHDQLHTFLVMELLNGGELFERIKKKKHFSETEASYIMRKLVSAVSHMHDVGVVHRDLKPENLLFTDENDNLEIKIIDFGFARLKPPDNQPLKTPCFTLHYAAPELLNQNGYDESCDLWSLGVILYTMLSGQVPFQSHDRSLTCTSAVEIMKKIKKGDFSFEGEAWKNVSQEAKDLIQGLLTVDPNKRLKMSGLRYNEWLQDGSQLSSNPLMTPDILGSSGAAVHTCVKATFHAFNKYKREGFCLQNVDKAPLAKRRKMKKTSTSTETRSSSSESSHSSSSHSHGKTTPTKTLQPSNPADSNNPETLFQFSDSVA

Compound in the test: COC(=O)/C=C/c1ccccc1 [methyl cinnamate]
In words: log2 ratio of iodoacetamide-alkyne labeling of the cysteine site, DMSO over compound (competition); higher = stronger covalent engagement of the cysteine by the compound, active = 1 or more. To be noted: 500 µM; treatment time 1 h; system: HEK293T cell lysate. In short, it runs like this:
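HEK293T lysate (2 mg/mL) was treated with DMSO or electrophile (500 µM, 1 h, ambient temperature), then iodoacetamide alkyne (1 h), clicked to sCIP-TMT reagents, pooled, trypsin-digested overnight at 37 °C, streptavidin-enriched and acid-eluted. Peptides were run on Orbitrap Eclipse LC-MS/MS with FAIMS and quantified in FragPipe. The log2 competition ratio per cysteine is mean control-channel over mean compound-channel reporter intensity. Duplicate channels and three replicates were used, and cysteines quantified in only one replicate were excluded.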
UniProt O60232_C56: the “log2 ratio of iodoacetamide-alkyne labeling” value (from here on “log2 ratio”) was inactive: 0.123. Next, DNAJC13 C2181 (UniProt O75165): inactive: 0.0385. Take RIPK2 C414 (UniProt O43353): the “log2 ratio” value was inactive: 0.369. For GSTZ1 C205 (UniProt O43708), the “log2 ratio” value was inactive: 0.229.

For the target NCOR1 C2056 (UniProt O75376), the “log2 ratio” value was inactive: 0.177.

Take RANBP6 C48 (UniProt O60518): the “log2 ratio” value is inactive: 0.348. Next, DIAPH2 C484 (UniProt O60879): inactive: 0.0901; ACTN4 C351 (UniProt O43707): inactive: 0.284. The figure for EIF5B C635 (UniProt O60841) is inactive: 0.104. Turning to NPM3 C41 (UniProt O75607), the “log2 ratio” value is inactive: -0.186. As for CTNND1 C618 (UniProt O60716), the “log2 ratio” value was inactive: 0.283.

As for KIF1B C1661 (UniProt O60333), the “log2 ratio” value is inactive: 0.218. Regarding GMDS C237 (UniProt O60547), the “log2 ratio” value is inactive: 0.109. With UniProt O43598_C26, the “log2 ratio” value was inactive: 0.13.

As to RNGTT C419 (UniProt O60942), the “log2 ratio” value is inactive: 0.213.

In the case of EXOC3 C465 (UniProt O60645), the “log2 ratio” value is inactive: -0.17.

RECQL4 C511 (UniProt O94761): the “log2 ratio” value was inactive: 0.229. Next, MPDZ C1794 (UniProt O75970): inactive: 0.263; UniProt O60282_C393: inactive: 0.0955. The figure for KATNA1 C491 (UniProt O75449) is inactive: -0.134; for UniProt O43865_C106 it is inactive: 0.366; for TBC1D4 C1286 (UniProt O60343) it is inactive: 0.184. Next, TBC1D4 C6 (UniProt O60343): inactive: -0.00232; PSMD3 C483 (UniProt O43242): inactive: 0.0648. As for UniProt O43432_C1411, the “log2 ratio” value was inactive: -0.132. The figure for ROCK2 C247 (UniProt O75116) is inactive: -0.0531; for RRP9 C296 (UniProt O43818) it is inactive: 0.109; for UniProt O75153_C184 it is inactive: 0.123.

For AQR C681 (UniProt O60306), the “log2 ratio” value was inactive: 0.144. Turning to NCOR1 C474 (UniProt O75376), the “log2 ratio” value was inactive: 0.185.

As to MYO1B C310 (UniProt O43795), the “log2 ratio” value is inactive: 0.0221.

In the case of UniProt O75582_C714, the “log2 ratio” value was inactive: -0.0411. As for RNGTT C97 (UniProt O60942), the “log2 ratio” value is inactive: -0.0468. The figure for UniProt O75582_C214 is inactive: 0.59; for SART1 C560 (UniProt O43290) it is inactive: 0.341. Next, ACTN4 C60 (UniProt O43707): inactive: 0.07. Regarding KIN C212 (UniProt O60870), the “log2 ratio” value was inactive: 0.348.

For the origin of these results see the supplement of paper PMC11006884.
